Our source for the binding values is patent publication US20230194519A1 (CCOA THERAPEUTICS, published 2023).

Amino acid sequences for entries named in this document (tags omitted). A change or cut given only in a name is not applied to a line headed by its entry.
UniProt P08514: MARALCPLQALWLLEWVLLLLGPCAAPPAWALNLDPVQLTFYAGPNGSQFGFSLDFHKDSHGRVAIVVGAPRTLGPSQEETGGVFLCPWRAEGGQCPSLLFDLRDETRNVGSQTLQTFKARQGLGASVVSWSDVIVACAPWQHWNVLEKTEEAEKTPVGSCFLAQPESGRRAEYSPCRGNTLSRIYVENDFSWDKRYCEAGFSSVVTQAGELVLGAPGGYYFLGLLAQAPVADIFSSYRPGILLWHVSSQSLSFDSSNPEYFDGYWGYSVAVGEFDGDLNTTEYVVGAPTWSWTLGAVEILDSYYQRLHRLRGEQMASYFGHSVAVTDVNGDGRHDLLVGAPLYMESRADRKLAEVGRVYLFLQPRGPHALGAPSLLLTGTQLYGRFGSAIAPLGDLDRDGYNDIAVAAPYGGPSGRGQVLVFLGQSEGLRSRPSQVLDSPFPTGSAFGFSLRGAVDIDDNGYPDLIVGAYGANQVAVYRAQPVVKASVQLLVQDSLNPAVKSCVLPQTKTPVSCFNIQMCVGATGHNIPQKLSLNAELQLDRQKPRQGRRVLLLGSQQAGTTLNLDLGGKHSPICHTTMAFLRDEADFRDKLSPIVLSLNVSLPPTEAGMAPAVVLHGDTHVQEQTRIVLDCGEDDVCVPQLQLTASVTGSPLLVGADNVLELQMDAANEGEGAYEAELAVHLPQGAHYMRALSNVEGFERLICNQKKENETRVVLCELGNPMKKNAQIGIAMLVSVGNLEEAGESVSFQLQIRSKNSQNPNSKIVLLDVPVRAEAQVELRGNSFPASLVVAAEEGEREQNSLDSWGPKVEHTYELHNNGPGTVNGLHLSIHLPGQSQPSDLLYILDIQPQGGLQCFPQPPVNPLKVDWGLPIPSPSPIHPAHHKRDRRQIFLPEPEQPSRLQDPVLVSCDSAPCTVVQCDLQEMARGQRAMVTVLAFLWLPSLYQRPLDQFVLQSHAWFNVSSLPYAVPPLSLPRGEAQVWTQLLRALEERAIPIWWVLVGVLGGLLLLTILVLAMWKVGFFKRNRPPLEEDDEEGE

For assay [1], the target named is Activated αIIbβ3 (recombinant human ectodomain αIIbβ3 on DETA beads after incubation in activation buffer with CaCl2, MnCl2 and MgCl2) (human) (UniProt P08514). Briefly: flow cytometry of activated αIIbβ3 beads with Alexa488-fibrinogen.
For assay [2] the target is unchanged. As to the kind of experiment: flow cytometry of activated adsorbed versus covalently bound αIIbβ3 beads with fibrinogen.

These are yes or no findings as the source states them, for the method shown. Some entries that bind do so weakly or less than the wild type.

B1: fibrinogen (ligand)
chain 1: ADSGEGDFLAEGGGVRGPRVVERHQSACKDSDWPFCSDEDWNYKCPSGCRMKGLIDEVNQDFTNRINKLKNSLFEYQKNNKDSHSLTTNIMEILRGDFSSANNRDNTYNRVSEDLRSRIEVLKRKVIEKVQHIQLLQKNVRAQLVDMKRLEVDIDIKIRSCRGSCSRALAREVDLKDYEDQQKQLEQVIAKDLLPSRDRQHLPLIKMKPVPDLVPGNFKSQLQKVPPEWKALTDMPQMRMELERPGGNEITRGGSTSYGTGSETESPRNPSSAGSWNSGSSGPGSTGNRNPGSSGTGGTATWKPGSSGPGSTGSWNSGSSGTGSTGNQNPGSPRPGSTGTWNPGSSERGSAGHWTSESSVSGSTGQWHSESGSFRPDSPGSGNARPNNPDWGTFEEVSGNVSPGTRREYHTEKLVTSKGDKELRTGKEKVTSGSTTTTRRSCSKTVTKTVIGPDGHKEVTKEVVTSEDGSDCPEAMDLGTLSGIGTLDGFRHRHPDEAAFFDTASTGKTFPGFFSPMLGEFVSETESRGSESGIFTNTKESSSHHPGIAEFPSRGKSSSYSKQFTSSTSYNRGDSTFESKSYKMADEAGSEADHEGTHSTKRGHAKSRPV
chain 2: QGVNDNEEGFFSARGHRPLDKKREEAPSLRPAPPPISGGGYRARPAKAAATQKKVERKAPDAGGCLHADPDLGVLCPTGCQLQEALLQQERPIRNSVDELNNNVEAVSQTSSSSFQYMYLLKDLWQKRQKQVKDNENVVNEYSSELEKHQLYIDETVNSNIPTNLRVLRSILENLRSKIQKLESDVSAQMEYCRTPCTVSCNIPVVSGKECEEIIRKGGETSEMYLIQPDSSVKPYRVYCDMNTENGGWTVIQNRQDGSVDFGRKWDPYKQGFGNVATNTDGKNYCGLPGEYWLGNDKISQLTRMGPTELLIEMEDWKGDKVKAHYGGFTVQNEANKYQISVNKYRGTAGNALMDGASQLMGENRTMTIHNGMFFSTYDRDNDGWLTSDPRKQCSKEDGGGWWYNRCHAANPNGRYYWGGQYTWDMAKHGTDDGVVWMNWKGSWYSMRKMSMKIRPFFPQQ
chain 3: YVATRDNCCILDERFGSYCPTTCGIADFLSTYQTKVDKDLQSLEDILHQVENKTSEVKQLIKAIQLTYNPDESSKPNMIDAATLKSRKMLEEIMKYEASILTHDSSIRYLQEIYNSNNQKIVNLKEKVAQLEAQCQEPCKDTVQIHDITGKDCQDIANKGAKQSGLYFIKPLKANQQFLVYCEIDGSGNGWTVFQKRLDGSVDFKKNWIQYKEGFGHLSPTGTTEFWLGNEKIHLISTQSAIPYALRVELEDWNGRTSTADYAMFKVGPEADKYRLTYAYFAGGDAGDAFDGFDFGDDPSDKFFTSHNGMQFSTWDNDNDKFEGNCAEQDGSGWWMNKCHAGHLNGVYYQGGTYSKASTPNGYDNGIIWATWKTRWYSMKKTTMKIIPFNRLTIGEGQQHHLGGAKQAGDV
modifications: Alexa488 label in the Table 2 assay
notes: Native ligand of αIIbβ3; also called Alexa488 labelled fibrinogen; Alexa 488 - Fibrinogen
On to B1, for which the binding result in assay [1] and in assay [2] was “binds” in each case.
